Results as given in patent publication US20070081951A1, “Prevention of dental plaque and dental calculus in animals” (priority 2005, published 2007).
Some of these results come from one statement about several compounds together.

System: dental plaque in cats
Assay: Example 3: antimicrobial rinses in cats, 4-week dental plaque formation
Format: in vivo
Conditions: 4-week test periods, clinical plaque grading

CCCCCCCCCCCCCCCC[n+]1ccccc1 [CPC alone, cetyl pyridinium chloride]
Reduction in the formation of dental plaque: 25-40%
